Measured values published in publication doi:10.1101/2023.03.18.533296.
Where a chain is given by its changes, count along the chain named. No constants are given. Whether binding was seen depends on the method and setting. Binding seen in cells or lysates may run through a third protein. Some entries that bind do so weakly or less than the wild type. Sequences can lack the tags named with a protein.

Columns and labels:
Assay in all cases: co-IP
[1] = target: T1, GFP-VAMP721 (VESICLE-ASSOCIATED MEMBRANE PROTEIN 721) (Arabidopsis thaliana) (UniProt Q9ZTW3)
T1 sequence: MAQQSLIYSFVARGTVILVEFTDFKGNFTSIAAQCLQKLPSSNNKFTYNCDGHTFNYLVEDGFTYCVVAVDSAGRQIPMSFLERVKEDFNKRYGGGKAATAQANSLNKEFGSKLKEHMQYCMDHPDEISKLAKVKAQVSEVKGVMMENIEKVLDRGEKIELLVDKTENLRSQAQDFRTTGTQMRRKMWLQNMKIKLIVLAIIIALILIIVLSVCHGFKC

[2] = target: T2, GFP-VAMP721^Y57D (Arabidopsis thaliana) (UniProt Q9ZTW3)
T2 sequence: T1 sequence with Y57D

[3] = target: T3, GFP-VAMP723 (Arabidopsis thaliana) (UniProt Q8VY69)
T3 sequence: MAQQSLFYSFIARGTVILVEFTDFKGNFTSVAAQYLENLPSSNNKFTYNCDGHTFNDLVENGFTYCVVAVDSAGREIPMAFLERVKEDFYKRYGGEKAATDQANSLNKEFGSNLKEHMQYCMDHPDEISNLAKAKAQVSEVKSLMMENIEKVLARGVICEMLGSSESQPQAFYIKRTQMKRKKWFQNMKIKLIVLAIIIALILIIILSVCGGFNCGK

B1: SYP111 (KNOLLE) (protein, UniProt Q42374 1-310)
chain: MNDLMTKSFMSYVDLKKAAMKDMEAGPDFDLEMASTKADKMDENLSSFLEEAEYVKAEMGLISETLARIEQYHEESKGVHKAESVKSLRNKISNEIVSGLRKAKSIKSKLEEMDKANKEIKRLSGTPVYRSRTAVTNGLRKKLKEVMMEFQGLRQKMMSEYKETVERRYFTVTGEHANDEMIEKIITDNAGGEEFLTRAIQEHGKGKVLETVVEIQDRYDAAKEIEKSLLELHQVFLDMAVMVESQGEQMDEIEHHVINASHYVADGANELKTAKSHQRNSRKWMCIGIIVLLLIILIVVIPIITSFSSS
With B1 the binding [1] was “binds”, the binding [2] was “binds” and the binding [3] was “no binding”.
